# Experimental data: PubChem BioAssay AID485314 (National Center for Advancing Translational Sciences (NCATS), 2010)
# Hit rate of the full screen: of about 340,000 compounds, about 4,500 (1.3%) were called active. The inconclusive results got no clear call from the source; some entries with a clear call stand among them for comparison. Calls come from the whole dose curve; as a rule, active = well fitted inhibition curve with a large enough effect; inconclusive = small, poorly fitted or top-dose-only effect, or another doubt; inactive = no such curve, though single readings can be large or run the other way. Potencies beside an inconclusive call are fits to weak or partial responses and may not hold up.
# Target: DNA polymerase beta (Homo sapiens) (UniProt P06746)
# Assay: qHTS Assay for Inhibitors of DNA Polymerase Beta
# Settings: Pol beta primer extension/strand displacement, fluorescence kinetic; activity change, negative = inhibition: at 114 µM (top of the series)
# Procedure, shortened: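 Kinetic readout of DNA synthesis with strand displacement by Pol beta. Compound and 10 nM enzyme sit 15 min at room temperature; 50 nM substrate starts the reaction, read immediately and at 10 min.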
# % is set by controls: 0 for no effect and ±100 for the full control effect; potency is the fitted concentration of half-maximal effect.
SMILES,"activity change, negative = inhibition",Potency
COC(=O)CCc1sc(Nc2ccc(OC)cc2)nc1-c1ccc(OC)cc1,inactive: 1.85%,–
CCOC(=O)/C(C#N)=C/c1cccc(C)c1,inactive: 5.92%,–
COc1ccc(Cn2c(C3CC3)nc3ccc(NC(=O)C4CC4)cc3c2=O)cc1,–,"inconclusive: 89.1 µM [inhibitor, single point]"
Oc1ccc(/C=N/Nc2ccc(Cl)nn2)c(O)c1O,–,active: 17.8 µM
Cc1nc2ccc(-c3nc4ccccc4[nH]3)cc2[nH]1,–,active: 12.6 µM
CCOC(=O)c1ccc(NC(=O)CC2C(=O)N(c3ccccc3)C(=O)N2Cc2cccs2)cc1 (stereo not drawn),–,"inconclusive: 2 µM [inhibitor, full curve, poor fit]"
Cc1nn(CC(=O)NCc2cccc(F)c2)c(=O)c2cccn12,inactive: 0.241%,–
Cc1ccc(S(=O)(=O)c2[nH]c(-c3ccccc3)nc2SCC(=O)O)cc1,inactive: 6.39%,–
Cc1ccc(N=Nc2ccc(O)c3ncccc23)cc1,inactive: 1.99%,–
Cc1ccc(Nc2nnc(SCC(=O)c3ccc(O)cc3O)s2)cc1,–,"inconclusive: 25.1 µM [inhibitor, full curve, poor fit]"
CCCCC(=O)N(Cc1ccc2c(c1)OCO2)Cc1nc2ccccc2c(=O)[nH]1,inactive: -0.321%,–
CCOc1ccc(CNC(=O)c2ccc3nc(Cc4ccc(OC)cc4)oc3c2)cc1OC,inactive: -18.2%,–
O=C(Nc1nnc(-c2ccco2)s1)C1CC1,–,"inconclusive: 89.1 µM [inhibitor, single point]"
COc1ccc(-c2cnc(C)o2)cc1S(=O)(=O)Nc1ccc(C)c(F)c1,–,"inconclusive: 22.4 µM [inhibitor, full curve]"
O=C(c1cc2ccccc2oc1=O)N(Cc1cccc(Cl)c1)C1CCS(=O)(=O)C1 (stereo not drawn),–,"inconclusive: 35.5 µM [inhibitor, single point]"
O=c1c2c3c(sc2nnn1Cc1ccc(Br)cc1)CCCC3,–,"inconclusive: 6.31 µM [inhibitor, full curve]"
Nc1nnnn1/N=C/c1ccccc1OCc1ccccc1,–,"inconclusive: 15.8 µM [inhibitor, full curve]"
CCOC(=O)c1ccc(NC(=O)CCc2c(C)nc3c(c(C)nn3C)c2C)cc1,inactive: -8.62%,–
COc1ccc(C(=O)CSc2nnnn2C)c(OC)c1,–,"inconclusive: 79.4 µM [inhibitor, single point]"
COc1ccc(-c2nc3c(C#N)c[nH]n3c2NC2CCCCC2)c(OC)c1,inactive: 15%,–
Cc1ccc2[nH]c3nc(N/N=C/c4cccc(O)c4)nnc3c2c1,–,active: 5.01 µM
N=C1/C(=C/c2cccn2-c2ccc([N+](=O)[O-])cc2)C(=O)N=C2SC=CN12,–,"inconclusive: 12.6 µM [inhibitor, full curve]"
Cc1ccc(/C=C2\OC(=O)c3ccccc32)cc1,–,"inconclusive: 39.8 µM [inhibitor, partial curve, poor fit]"
O=C(NCCN1CCOCC1)c1ccc2c(c1)N(Cc1ccccc1F)C(=O)c1ccccc1S2,–,"inconclusive: 0.141 µM [inhibitor, full curve, poor fit]"

# A few values from the results shown:
# For Potency, O=c1c2c3c(sc2nnn1Cc1ccc(Br)cc1)CCCC3 shows inconclusive: 6.31 µM [inhibitor, full curve]
# For Potency, Cc1ccc2[nH]c3nc(N/N=C/c4cccc(O)c4)nnc3c2c1 shows active: 5.01 µM

# The list continues:

SMILES,"activity change, negative = inhibition",Potency
Cc1csc(SCC(=O)Nc2ncc(Cl)c(C)c2Cl)n1,–,"inconclusive: 89.1 µM [inhibitor, single point]"
O=C(c1ccc(-c2ccccc2)cc1)N1CCN(c2ccccn2)CC1,inactive: 17.5%,–
CN(C)S(=O)(=O)c1ccc(Cl)c(NC(=O)COC(=O)c2cc(-c3ccccc3)nc3ccccc23)c1,–,"inconclusive: 3.55 µM [inhibitor, full curve, poor fit]"
NS(=O)(=O)c1ccc(NC(=S)NC(=O)/C=C/c2cccs2)cc1,inactive: 5.22%,–
Cn1c2c(c(=O)n(C)c1=O)CN(Cc1ccco1)CN2,–,"inconclusive: 25.1 µM [inhibitor, partial curve]"
CC(C)(C)OC(=O)N1CCN(C(=O)c2cccnc2Cl)CC1,–,"inconclusive: 89.1 µM [inhibitor, single point]"
CC(=O)Nc1ccc2c(c1)nc1n2CCSC1,–,"inconclusive: 0.158 µM [inhibitor, full curve, poor fit]"
COc1ccc(N=C2S/C(=C\c3ccc(OC(C)C(=O)O)c(OC)c3)C(=O)N2CCc2c[nH]c3ccccc23)cc1 (stereo not drawn),–,active: 35.5 µM
Fc1cccc(-n2ncc(-c3nnnn3-c3ccccc3)c2C(F)(F)F)c1,–,"inconclusive: 100 µM [inhibitor, single point]"
O=C(O)C(Cc1ccccc1)N1C(=O)/C(=C/c2cccc3ccccc23)SC1=S (stereo not drawn),–,active: 31.6 µM
CCOC(=O)c1noc2ncnc(N3CCN(c4ccccc4OC)CC3)c12,inactive: 1.14%,–
Cc1ccc(C(=O)CSc2nnc(-c3ccccc3N)n2C)cc1,inactive: 5.85%,–
CN(C)c1ccc(/C=C/c2ccc3c4ccccc4ccc3[n+]2-c2ccccc2)cc1,–,active: 11.2 µM
Cc1sc2nc3ccc(NCc4ccco4)nn3c(=O)c2c1C,–,"inconclusive: 39.8 µM [inhibitor, full curve]"
N#CC1=C(N)Oc2c(O)cc3ccccc3c2C1c1ccsc1 (stereo not drawn),–,"inconclusive: 22.4 µM [inhibitor, full curve]"
COc1cccc(N2CCN(C(=O)C3CCC(CNS(=O)(=O)c4ccc(Br)s4)CC3)CC2)c1 (stereo not drawn),inactive: -0.385%,–
CCS(=O)(=O)N1CC(=O)N(c2ccccc2C)C(C)(C(=O)NC2CCCCC2)C1 (stereo not drawn),inactive: -16.8%,–
O=C(NCc1ccccc1F)C1CCCN1S(=O)(=O)c1ccc(Cl)cc1 (stereo not drawn),–,"inconclusive: 2.82 µM [inhibitor, single point]"
Cc1cc(C(=O)N/N=C/c2cc(Br)ccc2OC(=O)c2ccccc2)n[nH]1,–,"inconclusive: 10 µM [inhibitor, partial curve, poor fit]"
Cc1nnc(N/N=C/c2cccc(OCc3ccc(Cl)c(Cl)c3)c2)n1N,inactive: -7.72%,–
CCOc1ccc(-n2c(C)cc(C(=O)CCl)c2C)cc1,inactive: -21%,–
CCC(=O)Nc1c2c(nn1-c1ccc(C)cc1)CS(=O)(=O)C2,inconclusive: -32.4% [inhibitor],–
N#C/C(=C\c1ccc(N2CCOCC2)o1)c1ccccc1,inactive: -19%,–
CC(C)Cc1nn2c(=O)cc(COC(=O)c3cccc(NC(=O)CCc4ccccc4)c3)nc2s1,–,"inconclusive: 70.8 µM [inhibitor, single point]"
